Assay results: publication doi:10.1101/2020.05.20.107664
Residue numbers refer to the chain shown, from its start. No constants are given. Whether binding was seen depends on the method and setting. Binding seen in cells or lysates may run through a third protein. Some results given as binding are weak or reduced against the parent protein; the word gives no strength. Where a sequence is shown, tags or fusion partners need not be part of it.

Amino acid sequences for entries named in this document (tags omitted).
UniProt Q64310: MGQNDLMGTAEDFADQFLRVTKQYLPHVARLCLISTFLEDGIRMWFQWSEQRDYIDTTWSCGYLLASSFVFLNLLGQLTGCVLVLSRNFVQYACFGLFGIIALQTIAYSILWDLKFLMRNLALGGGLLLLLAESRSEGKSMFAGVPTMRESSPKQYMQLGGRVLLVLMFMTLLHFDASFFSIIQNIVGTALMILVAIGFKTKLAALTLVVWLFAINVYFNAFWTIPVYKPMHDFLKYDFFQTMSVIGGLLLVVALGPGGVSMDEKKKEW

Key:
[1] = biological target: T1, α-COP variant E241K (α-COP-FLAG), transfected in HEK293T (mouse) (UniProt Q8CIE6); experiment: co-IP
T1 sequence: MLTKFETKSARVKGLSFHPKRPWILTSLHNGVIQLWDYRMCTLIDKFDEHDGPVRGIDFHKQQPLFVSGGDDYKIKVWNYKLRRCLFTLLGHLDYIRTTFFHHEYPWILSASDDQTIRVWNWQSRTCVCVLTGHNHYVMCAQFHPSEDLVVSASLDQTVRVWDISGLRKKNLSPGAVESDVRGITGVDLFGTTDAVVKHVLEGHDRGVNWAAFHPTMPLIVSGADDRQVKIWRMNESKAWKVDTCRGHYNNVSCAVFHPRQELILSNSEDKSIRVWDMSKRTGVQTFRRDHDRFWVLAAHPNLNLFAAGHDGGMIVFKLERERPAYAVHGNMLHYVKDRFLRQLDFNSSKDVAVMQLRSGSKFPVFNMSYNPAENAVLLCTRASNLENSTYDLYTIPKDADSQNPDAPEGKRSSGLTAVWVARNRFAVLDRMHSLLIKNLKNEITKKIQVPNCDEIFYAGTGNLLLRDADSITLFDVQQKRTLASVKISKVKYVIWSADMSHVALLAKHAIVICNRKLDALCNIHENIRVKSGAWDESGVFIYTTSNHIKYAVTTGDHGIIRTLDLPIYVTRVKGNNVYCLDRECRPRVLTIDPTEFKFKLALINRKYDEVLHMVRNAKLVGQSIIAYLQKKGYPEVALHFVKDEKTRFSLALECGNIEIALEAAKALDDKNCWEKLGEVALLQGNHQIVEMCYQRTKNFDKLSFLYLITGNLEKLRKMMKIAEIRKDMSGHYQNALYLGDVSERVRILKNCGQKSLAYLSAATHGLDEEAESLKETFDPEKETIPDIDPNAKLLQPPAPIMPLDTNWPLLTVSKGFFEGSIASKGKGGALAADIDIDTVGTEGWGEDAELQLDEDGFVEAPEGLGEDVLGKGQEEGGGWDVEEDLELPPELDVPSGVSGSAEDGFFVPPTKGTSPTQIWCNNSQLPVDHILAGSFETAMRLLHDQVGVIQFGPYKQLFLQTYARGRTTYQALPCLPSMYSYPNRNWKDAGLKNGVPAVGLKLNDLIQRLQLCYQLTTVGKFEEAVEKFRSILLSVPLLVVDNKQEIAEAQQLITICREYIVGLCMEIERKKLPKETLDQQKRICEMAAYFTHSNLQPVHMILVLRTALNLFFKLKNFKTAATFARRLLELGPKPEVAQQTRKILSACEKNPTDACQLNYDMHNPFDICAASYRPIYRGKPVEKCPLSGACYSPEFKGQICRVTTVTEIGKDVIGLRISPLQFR

[2] = biological target: T2, wild-type α-COP (α-COP-FLAG), transfected in HEK293T (mouse) (UniProt Q8CIE6); experiment: co-IP
T2 sequence: T1 sequence with K241E

Question: What does the source list for “Surf4 (wild type), transfected in HEK293T (from UniProt Q64310 1-269)”?
Answer: binding [1]: binds; binding [2]: binds
